For 3 molecules, binding results are on record in US20160002297A1, “THERAPEUTIC AGENTS” (NATIONAL UNIVERSITY OF SINGAPORE, priority 2013, published 2016).

Amino acid sequences for entries named in this document (tags omitted). Residues count along the entry.
UniProt P11021, residues 19-654: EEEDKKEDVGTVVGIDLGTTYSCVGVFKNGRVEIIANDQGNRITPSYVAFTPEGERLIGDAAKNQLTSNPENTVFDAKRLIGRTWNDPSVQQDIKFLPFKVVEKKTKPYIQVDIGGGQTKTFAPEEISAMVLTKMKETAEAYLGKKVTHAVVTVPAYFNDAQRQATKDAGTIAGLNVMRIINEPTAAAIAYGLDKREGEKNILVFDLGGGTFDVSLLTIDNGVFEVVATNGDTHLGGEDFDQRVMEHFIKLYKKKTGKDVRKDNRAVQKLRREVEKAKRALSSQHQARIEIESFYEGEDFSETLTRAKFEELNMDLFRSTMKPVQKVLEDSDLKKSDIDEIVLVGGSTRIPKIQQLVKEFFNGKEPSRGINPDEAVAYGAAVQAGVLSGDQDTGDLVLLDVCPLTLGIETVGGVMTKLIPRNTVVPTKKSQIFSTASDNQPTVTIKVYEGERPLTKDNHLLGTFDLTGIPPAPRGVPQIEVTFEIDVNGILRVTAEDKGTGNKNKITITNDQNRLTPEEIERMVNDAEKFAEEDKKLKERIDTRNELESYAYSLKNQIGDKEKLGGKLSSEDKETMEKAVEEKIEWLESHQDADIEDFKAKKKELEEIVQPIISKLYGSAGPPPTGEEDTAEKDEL

Results are given in words; binding and its absence hold for the method and conditions named. For some of these results: Binding seen in cells or lysates may run through a third protein. Some results given as binding are weak or reduced against the parent protein; the word gives no strength.

Assay [1] addresses T1, GRP78, purified recombinant protein (UniProt P11021 19-654, limits assumed).
T1 construct: also called glucose-regulated protein 78 kDa; BiP
Put plainly: ELISA solid phase-binding assay. A general note: ELISA stands for enzyme-linked immunosorbent assay.

Assay [2] deals with Cell-surface GRP78 in the plasma membrane fraction of HUVECs (human) (UniProt P11021). Put plainly: co-immunoprecipitation.
The target is the same in assay [3]. Put plainly: co-immunoprecipitation with anti-FITC antibody.

B1: Cyclic RAA peptide (cRAA) (peptide)
peptide: CRAAC
modifications: Disulfide bridge: 1-5
In the case of B1, the binding entry in assay [1] is on record as “binds”.

B2: FITC-labelled cRKD (FITC-RKD) (peptide)
peptide: CRKDC
modifications: FITC at the N-terminus (FITC-CRKDC); Disulfide bridge: 1-5
As for B2, the binding result in assay [2] and in assay [3] was “binds” throughout.

B3: Cyclic CRKDC peptide (cRKD) (peptide)
peptide: CRKDC
modifications: Disulfide bridge: 1-5
Consider B3, for which, in assay [1], the binding entry is listed as “binds”.
